From patent publication US8298766B2, “Fluorescent dyes, methods of synthesis and applications thereof” (priority 2010, dated 2012)

Experiments:
calf thymus DNA [1] = assay: Fluorescence quantum yields in the absence and presence of calf thymus DNA in buffer solution; assay type: physicochemical; details: pH 7.4, 10 mM Tris-HCl buffer; dye 1 μM; calf thymus DNA 100 μM; Rhodamine B as standard
calf thymus DNA [2] = assay: Fluorescence emission spectra in the absence and presence of calf thymus DNA in buffer solution; assay type: binding; details: dye 1 μM; for relative fluorescence intensity I in the presence of calf thymus DNA: calf thymus DNA 100 μM
Procedure: (§1) FIG. 1 is the comparison of fluorescence emission spectra of compound A with commercially available dye EB in the absence and presence of calf thymus DNA respectively in pH 7.36, 10 mM Tris-HCl buffer. The abscissa is wavelength (nm) and the ordinate is the relative fluorescence intensity. The equipments used are a UV-Vis spectrophotometer (Hp8453) and a spectrofluorophotometer (FP-6500). The concentrations of compound A, EB and calf thymus DNA are 1 μM, 1 μM and 100 μM respectively.
as §1, with “FIG. 2” for “FIG. 1”, “compound B” for “compound A”, “pH 7.4,” for “pH 7.36,”, “compound B,” for “compound A,”, “100 μM,” for “100 μM”
as §1, with “FIG. 3” for “FIG. 1”, “compound C” for “compound A”, “pH 7.24,” for “pH 7.36,”, “compound C,” for “compound A,”, “100 μM,” for “100 μM”
Determinations of the fluorescence emission spectra of compound A and commercially available dye EB in the absence and presence of calf thymus DNA respectively in buffer solution
(§2) Solutions of compound A in DMSO and EB in water are separately prepared with the concentrations of 1 mM. 3 μL of each solution is diluted with 10 mM Tris-HCl buffer solution (pH 7.36) to 3 mL in a cuvette to determine its fluorescence intensity. Solution of calf thymus DNA in water is prepared, whose concentration is determined as 1.5 mM by the adsorption at 260 nm in spectrophotometry (using the molar absorption coefficients of ε260 nm=6600 M^−1 cm^−1). Besides, another 3 μL of each solution of compound A and EB mentioned above is added into a cuvette, then 200 μL of solution of calf thymus DNA is dropped into each cuvette. Finally each mixture of dyes and calf thymus DNA solution is diluted with pH 7.36, 10 mM Tris-HCl buffer solution to 3 mL and the fluorescence emission spectra are determined respectively after stabilization. […] The equipments used are a UV-Vis spectrophotometer (Hp8453) and a spectrofluorophotometer (FP-6500). The concentrations of compound A and EB are both 1 μM, the concentration of calf thymus DNA is 100 μM.
Determinations of the fluorescence emission spectra of compound B and commercially available dye EB in the absence and presence of calf thymus DNA respectively in buffer solution
as §2, with “compound B” for “compound A”, “(pH 7.4)” for “(pH 7.36)”, “pH 7.4,” for “pH 7.36,”, “μM. […]” for “μM.”

In the case of CCN1C=C/C(=C\C=C\c2sc3ccccc3[n+]2CC)c2ccccc21 [M1, reference compound], the “fluorescence quantum yield φF upon binding to calf thymus DNA” value (calf thymus DNA [1]) is reported as 0.26.
With CCN1C=C/C(=C\C=C\c2sc3ccccc3[n+]2CCCC[N+](CC)(CC)CC)c2ccccc21 [M2] the “fluorescence quantum yield φF upon binding to calf thymus DNA” value (calf thymus DNA [1]) was 0.35.
With CCN(CC)CCCC[n+]1c(/C=C/C=C2\C=CN(CC)c3ccccc32)sc2ccccc21.[I-] [compound A] the “relative fluorescence intensity I0 in the absence of calf thymus DNA” value (from here on “relative fluorescence intensity I0”) (calf thymus DNA [2]; pH 7.36, 10 mM Tris-HCl buffer) was 6.25, the “relative fluorescence intensity I in the presence of calf thymus DNA” value (calf thymus DNA [2]; pH 7.36, 10 mM Tris-HCl buffer) was 345.3 and the “fluorescence quantum yield φF upon binding to calf thymus DNA” value (calf thymus DNA [1]) was 0.36.
In the case of COc1ccc2c(c1)oc(/C=C/C=C1\C=CN(CCCN3CCCCC3)c3ccccc31)[n+]2CCCN1CCCCC1.[Br-] [compound B], the “relative fluorescence intensity I0” value (calf thymus DNA [2]; pH 7.4, 10 mM Tris-HCl buffer) is reported as 2.28 and the “relative fluorescence intensity I in the presence of calf thymus DNA” value (calf thymus DNA [2]; pH 7.4, 10 mM Tris-HCl buffer) is reported as 203.3.
NCCNCCC[n+]1c(/C=C/C=C2\C=CN(CCO)c3ccccc32)sc2ccccc21 [compound C] was tested, and the “relative fluorescence intensity I0” value (calf thymus DNA [2]; pH 7.24, 10 mM Tris-HCl buffer) was 3.65 and the “relative fluorescence intensity I in the presence of calf thymus DNA” value (calf thymus DNA [2]; pH 7.24, 10 mM Tris-HCl buffer) was 274.5.
